Assay results as given in patent US20030237103A1, “Methods and compositions for pharmacological and toxicological evaluation of test agents” (priority 2002, published 2003).
For at least one compound, name, drawing or mass did not settle the structure.

How the values were obtained:
[1] = tested on: Panel, CD-IGS and parental rat strains; experiment: Plasma triglyceride lowering by clofibrate; type: in vivo
Description: Triglyceride levels in plasma were measured following euthanasia on day 7. Plotted are the percent differences in triglyceride values in a particular drug treatment group.

[2] = tested on: rat liver peroxisomal fatty-acyl CoA oxidase; experiment: Fluorometric assay of liver peroxisomal fatty-acyl CoA oxidase (FAO) activity after clofibrate; type: in vivo; details: three Panel strains and LEW parental vs. CD-IGS

CCOC(=O)C(C)(C)Oc1ccc(Cl)cc1 [clofibrate]
antilipidemic response ([1]; BN rats, 250 mg/Kg): did not exhibit any antilipidemic response | triglyceride levels ([1]; most, but not all, strains, 250 mg/Kg oral, 6 consecutive days): significantly lowered | increase in FAO activity [2]: significantly different from the resistant CD-IGS
